Drawing on PubChem BioAssay AID330 (DTP/NCI, 2004), this text covers survivor count and T/C for 28 molecules.

The list is a part of this screen's results and no random one: it is rich in T/C values a quarter to a half above the control, in often repeated tests (any T/C) and in doses without a T/C. Further doses and runs are listed elsewhere. T/C is the treated group as % of the vehicle group. Some entries give survivors of the animals treated and no T/C: the source holds a T/C of zero for them, seemingly a mark for toxic or unscored doses. Some survivor counts are full or nearly so, which does not show that the dose was tolerated: survival well below the control is almost never listed, so the zero probably covers shortened survival too. Survivors were counted at the toxicity check, usually on the fifth day, unless a day is given; later deaths do not show. Schedules are NCI's codes, read here as Q, the interval in days (D) or hours (H), X, the number of doses. Some entries hold several experiments; the values are given in rising order. Where survival is the endpoint, this PubChem deposit counts one and a half times the control or more as active, and values a quarter to a half above the control carry no call in these data; other NCI protocols may use other cut-offs. Some T/C values are followed by the survivors on the day toxicity was checked, most often the fifth; where none is given, no animal had died by that day.

In the assay the test system is P388 leukemia ip, CD2F1 mice, survival T/C. The experiment in a line: NCI In Vivo Anticancer Drug Screen. Data for tumor model P388 Leukemia (intraperitoneal) in CD2F1 (CDF1) mice. The note with it: T/C endpoint: median survival time, higher T/C = longer survival.
The mark [1] stands for this setting: dose: 50.0 mg/kg/injection, schedule: Q01DX009 (ip), vehicle: saline.
[2] abbreviates: dose: 200.0 mg/kg/injection, schedule: Q01DX005 (ip), vehicle: saline with Tween-80.
The mark [3] stands for this setting: dose: 200.0 mg/kg/injection, schedule: Q01DX009 (ip), vehicle: Klucel (hydroxypropylcellulose) (HPC).
The mark [4] stands for this setting: dose: 400.0 mg/kg/injection, schedule: Q01DX005 (ip), vehicle: saline with Tween-80.
Setting [5] is: dose: 240.0 mg/kg/injection, schedule: Q01DX005 (ip), vehicle: saline with Tween-80.
The mark [6] stands for this setting: dose: 100.0 mg/kg/injection, schedule: Q01DX005 (ip), vehicle: saline with Tween-80.
Where [7] appears, read: dose: 100.0 mg/kg/injection, schedule: Q04DX002 (ip), vehicle: saline with Tween-80.
Setting [8] is: dose: 200.0 mg/kg/injection, schedule: Q04DX002 (ip), vehicle: saline with Tween-80.

For the molecule `C=C(C#N)C1OC2OC(C)(C)OC2C1OCCCCCCCC` (centres undefined), the survivor count (dose: 400.0 mg/kg/injection, schedule: Q04DX002 (ip), vehicle: saline with Tween-80) is listed as 1 of 6.

Turning to `CC(=O)Nc1ccc(S(=O)(=O)N/N=c2/sc3ccccc3n2C)cc1N`, under setting [1], the survivor count is reported as 6 of 6.

Consider `C[C@]12C=CC(=O)C=C1CC[C@@H]1[C@@H]2CC[C@@]2(C)[C@H]1CC[C@]2(C)O`, for which the survivor count under setting [2] is on record as 5 of 6 and the survivor count (dose: 400.0 mg/kg/injection, schedule: Q01DX009 (ip), vehicle: Klucel (hydroxypropylcellulose) (HPC)) was 0 of 6.

For the molecule `C=C(C)C12CC(C)C34OC(CCCCCCCCCCC)(OC1C3C1OC1(CO)C(O)C1(O)C(=O)C(C)=CC14C)O2` (centres undefined), the survivor count is 6 of 6 (dose: 0.25 mg/kg/injection, schedule: Q01DX009 (ip), vehicle: other); 0 of 6 (dose: 0.5 mg/kg/injection, schedule: Q01DX009 (ip), vehicle: other); 0 of 6 (dose: 1.0 mg/kg/injection, schedule: Q01DX009 (ip), vehicle: other). The T/C was 126 % of control (dose: 100.0 micrograms/kg/injection, schedule: Q01DX009 (ip), vehicle: other) and 131 % of control (dose: 200.0 micrograms/kg/injection, schedule: Q01DX009 (ip), vehicle: other).

For the molecule `CC(=O)OCC1=CC2OC(=O)C3=COC(OC4OC(CO)C(O)C(O)C4O)C1C32` (centres undefined), the survivor count under setting [3] is listed as 6 of 6.

As to `C=C1C(=O)C2CCN1CC2`, the T/C under setting [2] was 125 % of control. Under setting [4], the survivor count is 1 of 6 and 5 of 6.

Turning to `Cn1c(=O)c2c(ncn2CCCl)n(C)c1=O`, the survivor count (dose: 200.0 mg/kg/injection, schedule: Q01DX005 (ip), vehicle: distilled water + Tween-80) is listed as 1 of 6.

Turning to `CN1CC(O)C2=CC(=O)C(=O)C(I)=C21` (centres undefined), the survivor count runs as follows: (dose: 100.0 mg/kg/injection, schedule: Q01DX005 (ip), vehicle: Klucel (hydroxypropylcellulose) (HPC)) 3 of 6; (dose: 120.0 mg/kg/injection, schedule: Q01DX005 (ip), vehicle: saline + Tween-80 + alcohol) 6 of 6; (dose: 200.0 mg/kg/injection, schedule: Q01DX005 (ip), vehicle: Klucel (hydroxypropylcellulose) (HPC)) 2 of 6; (dose: 400.0 mg/kg/injection, schedule: Q01DX005 (ip), vehicle: Klucel (hydroxypropylcellulose) (HPC)) 0 of 6.

Take `C/C(O)=C(/N=Nc1ccccc1)C(=O)O`: the survivor count under setting [5] is recorded as 1 of 6.

In the case of `CN(C=O)C(C(=O)Nc1cccc2c(OC(=O)C(N(C)C=O)(N(C)C=O)N(C)C=O)c(N=Nc3ccc(S(=O)(=O)Nc4nccs4)cc3)cc(N=Nc3ccc(S(=O)(=O)Nc4nccs4)cc3)c12)(N(C)C=O)N(C)C=O` (tested in a mixture with another compound), the T/C (dose: 50.0 mg/kg/injection, schedule: Q01DX005 (ip), vehicle: saline with Tween-80) is 132 % of control; the T/C under setting [6] was 135 % of control; the T/C under setting [2] was 142 % of control; the T/C (dose: 400.0 mg/kg/injection, schedule: Q01DX005 (ip), vehicle: saline with Tween-80, evaluated on day 20) was 149 % of control [4 of 5 alive]; the T/C (dose: 400.0 mg/kg/injection, schedule: Q01DX005 (ip), vehicle: saline with Tween-80, evaluated on day 30) is 126 % of control.

`O=C(NCCN(C(=O)C12CC3CC(CC(C3)C1)C2)c1ccc(F)cc1)C12CC3CC(CC(C3)C1)C2`: the survivor count (dose: 50.0 mg/kg/injection, schedule: Q01DX009 (ip), vehicle: saline with Tween-80) was 6 of 6; the survivor count (dose: 100.0 mg/kg/injection, schedule: Q01DX009 (ip), vehicle: saline with Tween-80) is reported as 6 of 6; the survivor count (dose: 200.0 mg/kg/injection, schedule: Q01DX009 (ip), vehicle: saline with Tween-80) was 6 of 6.

For the molecule `C1=Nc2ccccc2N=Cc2ccccc2NCCNc2ccccc21`, the survivor count under setting [1] is reported as 6 of 6; the survivor count (dose: 100.0 mg/kg/injection, schedule: Q01DX009 (ip), vehicle: saline) is recorded as 6 of 6; the survivor count (dose: 200.0 mg/kg/injection, schedule: Q01DX009 (ip), vehicle: saline) was 6 of 6.

For the molecule `CCCCCCN=C(N)N/N=C(\C)c1ccc2c(c1)Cc1cc(/C(C)=N/NC(N)=NCCCCCC)ccc1-2`, the survivor count is, setting by setting: under setting [7], 1 of 6; under setting [8], 1 of 6.

Regarding `COc1cccc2c1OC(=O)NC2O` (centres undefined), the survivor count under setting [4] is given as 2 of 5.

As for `c1ccc(NN=Nc2ncnc3nc[nH]c23)cc1`, the survivor count was 1 of 6 under setting [6] and 0 of 6 under setting [2].

`CC(C)NC(=O)c1ccc(CN(O)Cc2ccc(C(=O)NC(C)C)cc2)cc1`: the survivor count (dose: 200.0 mg/kg/injection, schedule: Q01DX009 (ip), vehicle: other) is reported as 6 of 6.

On to `COC1C(=O)OC(=O)C1OC` (centres undefined), for which the survivor count runs as follows: (dose: 120.0 mg/kg/injection, schedule: Q01DX005 (ip), vehicle: saline) 6 of 6; (dose: 240.0 mg/kg/injection, schedule: Q01DX005 (ip), vehicle: saline) 6 of 6.

With `O=C(O)Cc1ccc2c(c1O)C(=O)c1ccccc1C2=O`, the survivor count is reported as 3 of 6 under setting [6] and 0 of 6 under setting [2].

Regarding `Cc1cc(=O)n2c(nc3cc(C)c(C)cc32)s1`, the survivor count under setting [3] is listed as 6 of 6.

Consider `C[n+]1c(-c2ccc(/C=N\Nc3nnc(S)n3/N=C/c3ccc(-c4cn5ccccc5[n+]4C)cc3)cc2)cn2ccccc21`, for which the survivor count reads like this: (dose: 7.5 mg/kg/injection, schedule: Q01DX005 (ip), vehicle: saline with Tween-80) 0 of 6; (dose: 15.0 mg/kg/injection, schedule: Q01DX005 (ip), vehicle: saline with Tween-80) 0 of 6; (dose: 30.0 mg/kg/injection, schedule: Q01DX005 (ip), vehicle: saline with Tween-80) 0 of 6; (dose: 60.0 mg/kg/injection, schedule: Q01DX005 (ip), vehicle: saline with Tween-80) 0 of 6; (dose: 120.0 mg/kg/injection, schedule: Q01DX005 (ip), vehicle: saline with Tween-80) 0 of 6; under setting [5], 0 of 6.

Consider `O=c1n(-c2ccccc2)c(=O)n2n1C1C3C4C5C1C5C2C43` (centres undefined), for which, for the setting “dose: 25.0 mg/kg/injection, schedule: Q01DX009 (ip), vehicle: Klucel (hydroxypropylcellulose) (HPC)”, the survivor count is listed as 5 of 6.

For `O=C(O)CCC(=O)N(CCP(c1ccccc1)c1ccccc1)CCP(c1ccccc1)c1ccccc1`, the survivor count under setting [3] is 1 of 6.

For `NS(=O)(=O)c1cccc(NC(=S)Nc2ccccc2)c1`, the survivor count (dose: 12.5 mg/kg/injection, schedule: Q01DX009 (ip), vehicle: saline) is reported as 5 of 5. In addition, under setting [1], the T/C is recorded as 89, 100, 107, 127 % of control and the survivor count is reported as 4 of 6.

For the molecule `COc1cc2c(c(O)c1O)-c1ccc(OC)c(=O)cc1C(NC(C)=O)CC2` (centres undefined), the T/C (dose: 120.0 mg/kg/injection, schedule: Q01DX009 (ip), vehicle: distilled water + Tween-80) is 129 % of control.

As to `CON1C(=O)C(c2cccs2)=C2SCC=C21`, the survivor count under setting [5] is given as 0 of 6.

As for `Cc1ccc2c(c1)sc1n[nH]c(=O)n12`, the survivor count under setting [3] was 6 of 6.

On to `O=C1C=C[C@H](O)[C@@]2(CO)O[C@@H]12`, for which the T/C was 126 % of control (dose: 5.0 mg/kg/injection, schedule: Q04DX002 (ip), vehicle: saline with Tween-80); 130 % of control (dose: 5.0 mg/kg/injection, schedule: Q04DX002 (ip), vehicle: saline); 140 % of control (dose: 10.0 mg/kg/injection, schedule: Q04DX002 (ip), vehicle: saline with Tween-80); 132 % of control (dose: 10.0 mg/kg/injection, schedule: Q04DX002 (ip), vehicle: saline); 141 % of control [4 of 6 alive] (dose: 20.0 mg/kg/injection, schedule: Q04DX002 (ip), vehicle: saline). In addition, the survivor count runs as follows: (dose: 40.0 mg/kg/injection, schedule: Q04DX002 (ip), vehicle: saline) 0 of 6; (dose: 50.0 mg/kg/injection, schedule: Q04DX002 (ip), vehicle: saline with Tween-80) 0 of 6; under setting [7], 0 of 6; under setting [8], 0 of 6.

As to `CCC12OC(COc3ccccc3)CN1CCN2c1ccccc1` (centres undefined), the survivor count under setting [5] was 0 of 6.
